The target in the test is T1, Ataxin-2 (mouse brain) (mouse (endogenous in brain cortex)) (UniProt O70305).
T1 sequence: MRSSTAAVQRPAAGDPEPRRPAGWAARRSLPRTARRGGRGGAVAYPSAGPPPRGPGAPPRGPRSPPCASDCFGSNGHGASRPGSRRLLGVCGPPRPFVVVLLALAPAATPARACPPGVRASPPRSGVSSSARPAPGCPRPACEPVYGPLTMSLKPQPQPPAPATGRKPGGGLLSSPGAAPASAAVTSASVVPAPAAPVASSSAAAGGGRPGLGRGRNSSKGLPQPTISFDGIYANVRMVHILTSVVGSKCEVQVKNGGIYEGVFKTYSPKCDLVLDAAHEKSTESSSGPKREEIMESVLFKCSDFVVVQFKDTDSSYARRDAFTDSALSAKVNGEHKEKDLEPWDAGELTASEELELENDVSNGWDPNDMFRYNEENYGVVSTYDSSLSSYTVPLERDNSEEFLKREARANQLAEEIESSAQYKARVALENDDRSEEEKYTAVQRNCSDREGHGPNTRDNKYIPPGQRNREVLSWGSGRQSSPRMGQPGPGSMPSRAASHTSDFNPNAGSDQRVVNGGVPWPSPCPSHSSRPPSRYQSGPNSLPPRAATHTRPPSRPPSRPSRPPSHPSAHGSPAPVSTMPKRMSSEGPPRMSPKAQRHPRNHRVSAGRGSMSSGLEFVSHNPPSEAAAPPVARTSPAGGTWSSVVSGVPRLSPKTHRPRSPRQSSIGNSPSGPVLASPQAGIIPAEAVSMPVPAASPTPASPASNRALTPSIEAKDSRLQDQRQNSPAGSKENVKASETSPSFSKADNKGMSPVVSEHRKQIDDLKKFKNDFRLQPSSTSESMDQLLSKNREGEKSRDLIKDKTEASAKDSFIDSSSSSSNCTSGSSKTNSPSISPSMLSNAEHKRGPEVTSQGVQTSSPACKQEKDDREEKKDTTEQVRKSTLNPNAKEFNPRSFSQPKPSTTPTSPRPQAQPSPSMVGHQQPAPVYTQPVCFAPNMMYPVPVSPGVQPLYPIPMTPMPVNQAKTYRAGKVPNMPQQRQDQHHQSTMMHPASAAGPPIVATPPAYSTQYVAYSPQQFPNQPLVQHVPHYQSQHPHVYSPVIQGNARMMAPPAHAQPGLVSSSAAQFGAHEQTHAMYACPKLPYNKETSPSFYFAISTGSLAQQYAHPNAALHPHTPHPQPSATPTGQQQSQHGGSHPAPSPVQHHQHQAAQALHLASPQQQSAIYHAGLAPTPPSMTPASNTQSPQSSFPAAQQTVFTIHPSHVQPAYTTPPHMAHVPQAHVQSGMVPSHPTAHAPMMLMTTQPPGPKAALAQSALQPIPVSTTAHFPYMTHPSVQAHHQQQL
Kind of test: co-IP; brain cortex lysates of WT or Tar6/Tar6 mice (6 months old); anti-Ataxin-2 antibody (or IgG) on Protein A Dynabeads, overnight at 4°C; IP lysis buffer; Western blot with Ataxin-2 and TDP-43 antibodies.

Amino acid sequences for entries named in this document (tags omitted).
UniProt Q921F2: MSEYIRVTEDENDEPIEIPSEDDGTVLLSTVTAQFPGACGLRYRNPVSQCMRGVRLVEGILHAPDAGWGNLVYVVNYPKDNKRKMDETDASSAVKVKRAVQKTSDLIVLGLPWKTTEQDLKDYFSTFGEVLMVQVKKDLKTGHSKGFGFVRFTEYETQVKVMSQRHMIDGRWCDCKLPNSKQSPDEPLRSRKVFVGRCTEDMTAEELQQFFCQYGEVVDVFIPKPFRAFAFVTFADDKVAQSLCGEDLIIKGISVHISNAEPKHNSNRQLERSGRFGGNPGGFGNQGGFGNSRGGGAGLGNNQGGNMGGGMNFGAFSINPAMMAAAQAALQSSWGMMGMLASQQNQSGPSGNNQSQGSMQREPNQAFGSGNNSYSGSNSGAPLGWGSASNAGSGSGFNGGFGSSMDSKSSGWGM
UniProt Q13148: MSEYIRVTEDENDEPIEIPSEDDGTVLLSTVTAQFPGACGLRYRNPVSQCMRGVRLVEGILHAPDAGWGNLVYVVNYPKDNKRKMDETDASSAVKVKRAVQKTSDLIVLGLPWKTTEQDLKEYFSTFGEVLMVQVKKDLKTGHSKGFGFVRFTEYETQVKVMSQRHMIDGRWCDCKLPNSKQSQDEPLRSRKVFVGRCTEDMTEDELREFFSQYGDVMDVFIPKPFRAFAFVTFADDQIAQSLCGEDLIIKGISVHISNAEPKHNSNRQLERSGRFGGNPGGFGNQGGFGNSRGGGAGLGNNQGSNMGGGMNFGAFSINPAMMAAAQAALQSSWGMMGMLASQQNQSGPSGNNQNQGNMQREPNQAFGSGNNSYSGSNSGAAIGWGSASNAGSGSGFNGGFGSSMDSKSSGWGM

In article PMC11687654 one finds binding data, which are given here for two substances.

No constants are given. Whether binding was seen depends on the method and setting. Binding seen in cells or lysates may run through a third protein. Some results given as binding are weak or reduced against the parent protein; the word gives no strength.

Regarding “TDP-43 (WT mouse brain) (from UniProt Q921F2 1-414)”, the binding result is listed as “binds”.
Consider “human wild-type TDP-43 of the Tar6/Tar6 transgenic mouse (from UniProt Q13148 1-414)”, for which the binding result is recorded as “binds”.
